Results taken from article PMC3570535.

The chains behind the UniProt entries cited, without tags or fusion partners. Residues count along the entry.
UniProt P10515, 87-647: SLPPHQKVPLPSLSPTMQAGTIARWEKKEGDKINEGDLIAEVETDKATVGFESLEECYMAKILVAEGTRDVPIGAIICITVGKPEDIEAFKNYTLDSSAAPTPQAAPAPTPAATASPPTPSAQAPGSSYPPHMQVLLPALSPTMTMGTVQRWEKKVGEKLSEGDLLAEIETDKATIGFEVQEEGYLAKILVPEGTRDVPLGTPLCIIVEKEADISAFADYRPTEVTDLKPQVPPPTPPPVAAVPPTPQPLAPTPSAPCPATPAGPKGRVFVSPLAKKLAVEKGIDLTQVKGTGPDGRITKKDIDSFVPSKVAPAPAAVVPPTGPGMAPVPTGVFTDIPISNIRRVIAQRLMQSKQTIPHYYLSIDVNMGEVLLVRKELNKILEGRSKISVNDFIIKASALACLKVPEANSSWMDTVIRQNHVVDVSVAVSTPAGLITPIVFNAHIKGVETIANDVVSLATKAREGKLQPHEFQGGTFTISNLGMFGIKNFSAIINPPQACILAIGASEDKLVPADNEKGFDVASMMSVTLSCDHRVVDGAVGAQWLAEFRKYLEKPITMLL

Legend:
Test in all cases: UV cross-linking
[1] = biological target: Hs-E2 (DLAT) (Homo sapiens) (UniProt P10515); details: ~100 ng protein, weakest, compared with green-lineage proteins; 20 mM HEPES/KOH pH 7.8, 5 mM MgCl2, 60 mM KCl, RT; 5 min (UV cross-linking, 254 nm, 1 J/cm2) or 15 min (filter binding); recombinant protein; protein details: His6; label: 32P-UTP (internal); probe letters rebuilt from the primers and the genome
[2] = biological target: T1, Sc-E2 (Lat1) (Saccharomyces cerevisiae) (UniProt P12695); details: ~100 ng protein, weaker than green-lineage proteins; 20 mM HEPES/KOH pH 7.8, 5 mM MgCl2, 60 mM KCl, RT; 5 min (UV cross-linking, 254 nm, 1 J/cm2) or 15 min (filter binding); recombinant protein; protein details: His6; label: 32P-UTP (internal); probe letters rebuilt from the primers and the genome
T1 sequence (looked up, limits assumed): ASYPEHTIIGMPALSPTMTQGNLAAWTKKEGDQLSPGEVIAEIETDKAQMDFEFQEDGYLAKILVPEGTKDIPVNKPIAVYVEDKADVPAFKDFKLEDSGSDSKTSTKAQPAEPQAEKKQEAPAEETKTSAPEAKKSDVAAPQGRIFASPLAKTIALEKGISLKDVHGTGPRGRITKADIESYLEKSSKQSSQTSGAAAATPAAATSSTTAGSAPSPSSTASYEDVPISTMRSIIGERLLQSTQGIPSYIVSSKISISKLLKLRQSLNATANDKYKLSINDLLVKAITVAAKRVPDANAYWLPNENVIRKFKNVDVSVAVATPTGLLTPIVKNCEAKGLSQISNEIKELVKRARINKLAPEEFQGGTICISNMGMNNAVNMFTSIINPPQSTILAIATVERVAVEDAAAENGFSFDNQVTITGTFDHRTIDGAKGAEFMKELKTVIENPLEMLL

[3] = biological target: T2, Syn-E2 (Synechocystis sp. PCC 6803) (UniProt P74510); details: ~100 ng protein; 20 mM HEPES/KOH pH 7.8, 5 mM MgCl2, 60 mM KCl, RT; 5 min (UV cross-linking, 254 nm, 1 J/cm2) or 15 min (filter binding); recombinant protein; protein details: His6; label: 32P-UTP (internal); probe letters rebuilt from the primers and the genome
T2 sequence (looked up, limits assumed): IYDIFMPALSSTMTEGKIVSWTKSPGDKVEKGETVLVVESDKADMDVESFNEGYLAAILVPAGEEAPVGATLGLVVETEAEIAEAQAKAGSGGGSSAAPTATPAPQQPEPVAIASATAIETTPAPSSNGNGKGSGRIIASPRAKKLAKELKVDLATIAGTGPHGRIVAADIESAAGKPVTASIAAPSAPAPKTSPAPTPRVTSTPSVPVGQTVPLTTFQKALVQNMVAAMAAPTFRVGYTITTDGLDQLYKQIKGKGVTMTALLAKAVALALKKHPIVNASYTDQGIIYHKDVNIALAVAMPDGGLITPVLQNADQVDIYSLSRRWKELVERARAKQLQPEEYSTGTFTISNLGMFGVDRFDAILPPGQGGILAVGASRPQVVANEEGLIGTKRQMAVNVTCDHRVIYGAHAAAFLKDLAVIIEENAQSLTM

GGGUACCAUGCUUUUAAUAGAAGCUUGAAUUUAUAAAUUAAAAUAUUUUUACAAUAUUUUACGGAGAAAUUAAAACUUUAAAAAAAUUAACAUAUGA [psbA 5' UTR RNA]
binding result [1]: binds more weakly
binding result [2]: binds more weakly
binding result [3]: binds

For at least one entry, the source does not settle the construct or the ends of the probe. For part of these data: Weaker means in comparison with the reference protein, sequence or condition of that experiment. For part of these data: Where a protein sequence is shown, tags need not be part of it.
